Screen size: about 53,000 sequences; about 3,700 (7%) were called active.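 The calls were made as follows: active = gene knockdowns whose robust z-score for IL-1 alpha signal is at least 2 or at most -2, so actives lie on both sides; inactive = the rest.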 Some of the results follow.
assay: Components of the Cytosolic LPS Sensing Pathway: Gene Identification via Genome-wide siRNA Screen; settings: RAW264.7 macrophages, IL-1a HTRF, actives lie on both sides, screened at 100 nM (by protocol), cells primed 5 h with Pam3CSK4 first;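 also: robust z of the log signal after scaling to non-targeting control siRNA wells of the plate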
In short: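 RAW264.7; siRNA 100 nM final, RNAiMAX, 48h 37 degrees C; Pam3CSK4 5 h; LipidA + TransIT-TKO 24 h; IL-1a HTRF; CellTiter-Glo viability; robust z vs negative-control median.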

Row | Sequence | z-score
1 | CCCUUGUGAUGUGGUGAAGTT against Slc25a22 | inactive: -1.5
2 | GUGAUGUCACCCACGAAAGTT against Erdr1 | inactive: 0.356
3 | GGAGAAGGUCAUUCUGAUGTT against Specc1l | inactive: -0.0983
4 | GCUGAAAUCCUUAAUCUCGTT against Col6a3 | inactive: 1.55
5 | GGCAUCUUUACAUUUGUGATT against Sap30 | inactive: 0.988
6 | GGACCAUAAAACAGUCUGATT against Endod1 | inactive: -0.627
7 | GCCAUGUGAGACUCUUAUATT against Slc2a9 | inactive: 0.62
8 | GGUUCUUGAAACACUUUACTT against Hvcn1 | inactive: 0.843
9 | GGAAUGGAAAUUUGAUACUTT against Eif4a3 | inactive: -0.7
10 | GGUUCUCCGAACUCUGUUGTT against Gbf1 | inactive: -1.44
11 | CCUGCUACAAGUAUCUCAATT against Fdft1 | active: 2.85
12 | GUGUUCAGCAAUUCCUACCTT against Tma7 | inactive: 1.3
13 | GGCUAUCUGAUUUUUGUUGTT against Nlrp3 | inactive: -0.0259
14 | CCUAAUCUCUUGUAGGUAUTT against AU018091 | inactive: 1.03
15 | GGUUUUCAAAUGUCUAUCATT against Pithd1 | active: 2.37
16 | GGCAAAAGUGUGAACAGUUTT against Sftpb | inactive: -0.213
17 | GGAGAAGAAGAAAGAGCGGTT against Gja3 | inactive: -0.981
18 | CGAACUUCAAGACUGUGAUTT against Cep95 | inactive: -0.248
19 | GGAUGUGUUUGUGUGCAUGTT against Recql5 | inactive: 0.785
20 | CCCUUAGCGACUUUUCUAATT against Eif5b | inactive: 0.71
21 | GGCAAAUCCCGUUCACUGATT against Magel2 | inactive: -1.08
22 | AGACCGAGUAAGUUUAACUTT against Lrrc39 | inactive: 0.102

From no. 14 to 19, copied from above:
Row | Sequence | z-score
14 | CCUAAUCUCUUGUAGGUAUTT against AU018091 | inactive: 1.03
15 | GGUUUUCAAAUGUCUAUCATT against Pithd1 | active: 2.37
16 | GGCAAAAGUGUGAACAGUUTT against Sftpb | inactive: -0.213
17 | GGAGAAGAAGAAAGAGCGGTT against Gja3 | inactive: -0.981
18 | CGAACUUCAAGACUGUGAUTT against Cep95 | inactive: -0.248
19 | GGAUGUGUUUGUGUGCAUGTT against Recql5 | inactive: 0.785

Additional entries:

Row | Sequence | z-score
23 | GGAAUAAUUGGUGUUAAAGTT against Hnrnpk | inactive: 0.346
24 | GCCAAGAAAAUCAAGUCUCTT against Pknox2 | inactive: 0.892
25 | CGGAAUCAAGGACCGAGUUTT against Ndufab1 | inactive: -0.0943
26 | GACCACAGAUGACAUGGUGTT against Il12a | inactive: 0.447
27 | GGAUGUGUUACUUACCAAATT against Map4 | inactive: 0.607
28 | GGAAACCUUCAGGUUCUGATT against Cdon | inactive: 0.703
29 | GUUGUGCCUCCCUCAAUCATT against Ndufa7 | inactive: -1.03
30 | CGUAGGACUGAAUCAGCUUTT against Slc13a3 | active: -3.04
31 | GGCUAUCACAUGUAACUUCTT against Cplx3 | inactive: -0.602
32 | GGCAGAGAAGCAAAACCAATT against Iqcf3 | inactive: -1.82
33 | GGACUUCAUGCAUCUUACUTT against Stat1 | inactive: -0.228
34 | GGAUUAUAAGUGGAGAAUGTT against Sytl5 | inactive: -0.468
35 | GGCACUUCAAGGAGUUUUUTT against Lig4 | active: 3.25
36 | GGAAAAUACAGCGCGAAUUTT against Nexn | inactive: 1.4
37 | GGAUCUCCUGCUUGAACUGTT against Adam33 | active: 2.79
38 | CCAUCACUCGAGCUUCUAGTT against Dhx30 | inactive: 0.185
39 | GGACCUCUAGCUGGAACACTT against Il17c | inactive: -1.08
40 | CCUUGUGGUUUUCGUAACGTT against Mrgprb1 | inactive: 1.79
41 | CCAACUCCUGGAAGAUGCATT against Olfr1314 | inactive: 1.06
42 | GCGGAACUGACUUUCCUGATT against Rhot2 | inactive: 0.443
43 | GGUCAGAAUCUUUGUUCCUTT against Ndufs4 | inactive: -0.912
44 | GGUUUUACCGAUGAUGCAUTT against Pcdhb20 | inactive: -0.624

Row | Sequence | z-score
45 | GCCACCCUAACAUUGUUUCTT against Gm4922 | inactive: 1.98
46 | GGUGUAAAGGAAAGAAGAATT against Gm9871 | inactive: 0.684
47 | GGAGACAUAUGAGACUCUGTT against Fcer1g | inactive: 0.156
48 | GGAUGUUUGCUCUUGAGCGTT against Isoc1 | active: -2.17
49 | GGUAGAUGCUUUGAGCUUCTT against Enpp2 | inactive: 0.17
50 | GCUAUUCGUCAAUGCUGACTT against Abcf1 | inactive: 0.0808
51 | GCCAGAGCAUGAGUGAAAATT against Sephs2 | inactive: 0.351
52 | GGUGACUAGGAAGAACACGTT against Tmem9b | inactive: 1.99
53 | GGAAUUUCCCAAAAGCACUTT against Nubp2 | inactive: 1.7
54 | GGUUGUCACCAUCAGUCCUTT against Vmn1r195 | inactive: 0.219
55 | GGGCUGUAUAUAAAAUAUCTT against Gprc5b | inactive: 0.44
56 | GGUGGAAGACAAUGAAAUUTT against Ftsj1 | inactive: -0.56
57 | CCUCGACACUACUGUGUUATT against Mvp | inactive: -0.0476
58 | GGCUACCAGGUUCUUAAACTT against Alox12b | inactive: 0.229
59 | CCCUCUCCGAUAUAACACUTT against Olfr672 | inactive: 1.45
60 | GCCGGUCUUUCAAGAAGAUTT against Lnx1 | inactive: 0.559
61 | GGCAAAACAAAGAAUGAAATT against Prss40 | inactive: -0.38
62 | GGAUGAUGAGGAUGACUACTT against Trap1a | inactive: 0.313
63 | GGUUAACUGAAUCAAAAAGTT against Pdhx | inactive: 1.84
64 | GGAGGAACAAGUUGUGCCUTT against Gjd4 | inactive: 0.146
65 | GGUACAAAAUGGCUUGUUGTT against Tmem215 | active: 2.53
66 | GGACUUUCUUGAGGUAUUATT against Tbc1d19 | inactive: -1.27

Rewritten as a markdown table: part of the list above.

| Row | Sequence | z-score |
| --- | --- | --- |
| 52 | GGUGACUAGGAAGAACACGTT against Tmem9b | inactive: 1.99 |
| 53 | GGAAUUUCCCAAAAGCACUTT against Nubp2 | inactive: 1.7 |

(continued)

Row | Sequence | z-score
67 | GCCCAAGAAUGUGCCUUAUTT against Olfr1278 | inactive: -0.578
68 | GGUGACCUAGAACCUACAGTT against Map2k3os | inactive: -0.0692
69 | GGCAACAUCCAAAAAUAAATT against Cers4 | inactive: -0.853
70 | CGUGGCCGUUAGUUGUAAATT against Zbtb40 | inactive: 0.237
71 | GGAGAAAUAAGAAAUUUGGTT against Rpgrip1l | inactive: 0.228
72 | GCGGAACCUAUAUAGGAAUTT against Zfp74 | inactive: -0.292
73 | GGCAAAGUUCUCUUCCAUATT against Olfr914 | inactive: 0.0997
74 | GGAGAAAACAGGAAUUGUGTT against H2-Eb1 | inactive: -0.748
75 | GCUAUUUGUCCCUUAGCAGTT against Slc22a5 | inactive: 1.59
76 | CGAAUAUGGGAUCAAGAAATT against Nt5el | inactive: -1.3
77 | GGUUGAGUGUUUAACUUAGTT against Trappc5 | inactive: -1.32
78 | CCACACCUUCAAAGCGAGATT against L3mbtl4 | inactive: -0.104
79 | GCAAGAACCUAGAGUUAUUTT against Zfp105 | inactive: 0.225
80 | GGAACAAGCAUACAGGUUCTT against Nphp1 | inactive: 1.85
81 | GGCAACAGCAUCCUACUCUTT against Olfr652 | active: -2.12
82 | GGCUAACCACAUUUGCUUCTT against Zic4 | inactive: 0.759
83 | GGAUGAGGAGAUAAAGUCUTT against Misp | inactive: -0.981
84 | GGUACUAAAUAUAAAUGGCTT against Igsf6 | inactive: 1.27
85 | CCCGCUAUUUGGUGCUAACTT against Amh | active: 3.21
86 | GCAACAAGCUGAUAGGGACTT against Otof | inactive: 0.454
87 | GCCUACACCAGUCCUUUGATT against Baiap2l1 | inactive: 0.509
88 | CGACAAUCAACCUACCAGCTT against Cd68 | inactive: 0.418

Row | Sequence | z-score
89 | GGAAGGAUCCGUGAUGAAGTT against Lypd10 | inactive: -0.479
90 | GGAUUCCUACAGCUUCACGTT against Gm9732 | inactive: 1.16
91 | CCUGAUAGUAUUUUACGAGTT against Catsperd | inactive: -0.331
92 | CCUCACAGUAUUCGGCCGATT against Adamts2 | inactive: 1.3
93 | GGAAUUCAUGUUUUCGCUUTT against Slc9a3r2 | inactive: 1.06
94 | GGAUUCAUAUGUGAUUGACTT against Flt4 | inactive: 1.6
95 | CCAGGGAUCUACAUCUACATT against Olfr1367 | inactive: 0.0288
96 | GGGAGAUUCAUUUUCCCAGTT against Rnf43 | inactive: 0.0663
97 | CCGUUUUGGUCACGUAUCATT against Olfr599 | inactive: -0.401
98 | GGAUAAGGGAAUCACUAUCTT against Ankrd24 | inactive: -0.331
99 | GGAGGAGAGAUGGUAAUCCTT against Olfr729 | inactive: -0.185
100 | GCAGAAACCGUAAAAGCCUTT against Lypla1 | inactive: -0.987
101 | GGGAGCAAACGAGAAGAUATT against Gjd2 | active: 4.09
102 | GCGACCAUUUCGUUUUAGUTT against Frat1 | inactive: 1.07
103 | GCUGCCGUACAGUCUCUAATT against Harbi1 | inactive: 0.263
104 | CGAGACUCUAGAUAGACUGTT against Zswim3 | inactive: -1.29
105 | GCUUCAGUGGCUACUCUUGTT against H2-M2 | inactive: 0.63
106 | GGUCUUCUACAACUCGGAATT against Sgpp1 | inactive: -0.146
107 | GGAGCUGUCUAUCACCUGGTT against Popdc2 | inactive: 0.646
